Measured values published in paper PMC4997581.

By UniProt entry, the sequences of proteins in these tests, tags left out.
UniProt P14635: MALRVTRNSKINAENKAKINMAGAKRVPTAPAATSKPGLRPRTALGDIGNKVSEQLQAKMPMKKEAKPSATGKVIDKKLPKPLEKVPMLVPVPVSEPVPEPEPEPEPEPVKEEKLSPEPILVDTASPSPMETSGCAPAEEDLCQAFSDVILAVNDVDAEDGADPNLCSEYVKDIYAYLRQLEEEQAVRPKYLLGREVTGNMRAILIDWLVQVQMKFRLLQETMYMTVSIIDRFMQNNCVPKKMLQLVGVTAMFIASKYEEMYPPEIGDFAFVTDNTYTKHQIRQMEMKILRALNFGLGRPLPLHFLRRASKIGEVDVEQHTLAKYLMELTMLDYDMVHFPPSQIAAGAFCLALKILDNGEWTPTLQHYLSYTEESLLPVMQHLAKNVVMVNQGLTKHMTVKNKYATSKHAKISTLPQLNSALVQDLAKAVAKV
UniProt O60563: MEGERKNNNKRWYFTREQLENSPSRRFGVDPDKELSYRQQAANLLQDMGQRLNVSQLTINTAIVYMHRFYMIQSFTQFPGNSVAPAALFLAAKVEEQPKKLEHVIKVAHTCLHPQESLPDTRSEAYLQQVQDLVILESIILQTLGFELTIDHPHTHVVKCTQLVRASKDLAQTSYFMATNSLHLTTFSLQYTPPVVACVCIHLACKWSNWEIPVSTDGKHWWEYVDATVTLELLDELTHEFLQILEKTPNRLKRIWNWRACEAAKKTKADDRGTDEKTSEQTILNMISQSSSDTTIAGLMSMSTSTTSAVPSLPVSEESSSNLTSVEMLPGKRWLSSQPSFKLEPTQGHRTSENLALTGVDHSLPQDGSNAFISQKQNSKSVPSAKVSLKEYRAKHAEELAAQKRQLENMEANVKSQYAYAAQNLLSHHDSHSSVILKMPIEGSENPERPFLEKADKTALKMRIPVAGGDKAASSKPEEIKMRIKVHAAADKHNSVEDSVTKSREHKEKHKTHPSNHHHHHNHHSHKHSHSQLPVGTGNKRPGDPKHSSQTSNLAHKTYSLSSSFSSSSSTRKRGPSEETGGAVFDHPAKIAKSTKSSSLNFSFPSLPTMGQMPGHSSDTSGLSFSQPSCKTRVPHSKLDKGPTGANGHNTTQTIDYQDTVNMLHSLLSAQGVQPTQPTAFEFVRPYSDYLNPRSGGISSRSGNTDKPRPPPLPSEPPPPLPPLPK

T1: Cyclin H (human (endogenous in 293T and HFF)) (UniProt P51946)
T1 sequence: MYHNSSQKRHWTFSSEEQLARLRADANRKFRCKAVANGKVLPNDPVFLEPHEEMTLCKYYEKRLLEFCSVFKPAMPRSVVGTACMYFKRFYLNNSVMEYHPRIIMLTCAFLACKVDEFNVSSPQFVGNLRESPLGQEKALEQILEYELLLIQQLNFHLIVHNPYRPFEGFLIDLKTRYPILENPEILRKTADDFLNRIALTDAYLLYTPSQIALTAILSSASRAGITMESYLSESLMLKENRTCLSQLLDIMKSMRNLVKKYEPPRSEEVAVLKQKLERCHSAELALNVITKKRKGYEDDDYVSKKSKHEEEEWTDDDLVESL

B1: Major CDK9 EF-associated protein (protein, UniProt Q9UHB7 1-1163)
chain: MNREDRNVLRMKERERRNQEIQQGEDAFPPSSPLFAEPYKVTSKEDKLSSRIQSMLGNYDEMKDFIGDRSIPKLVAIPKPTVPPSADEKSNPNFFEQRHGGSHQSSKWTPVGPAPSTSQSQKRSSGLQSGHSSQRTSAGSSSGTNSSGQRHDRESYNNSGSSSRKKGQHGSEHSKSRSSSPGKPQAVSSLNSSHSRSHGNDHHSKEHQRSKSPRDPDANWDSPSRVPFSSGQHSTQSFPPSLMSKSNSMLQKPTAYVRPMDGQESMEPKLSSEHYSSQSHGNSMTELKPSSKAHLTKLKIPSQPLDASASGDVSCVDEILKEMTHSWPPPLTAIHTPCKTEPSKFPFPTKESQQSNFGTGEQKRYNPSKTSNGHQSKSMLKDDLKLSSSEDSDGEQDCDKTMPRSTPGSNSEPSHHNSEGADNSRDDSSSHSGSESSSGSDSESESSSSDSEANEPSQSASPEPEPPPTNKWQLDNWLNKVNPHKVSPASSVDSNIPSSQGYKKEGREQGTGNSYTDTSGPKETSSATPGRDSKTIQKGSESGRGRQKSPAQSDSTTQRRTVGKKQPKKAEKAAAEEPRGGLKIESETPVDLASSMPSSRHKAATKGSRKPNIKKESKSSPRPTAEKKKYKSTSKSSQKSREIIETDTSSSDSDESESLPPSSQTPKYPESNRTPVKPSSVEEEDSFFRQRMFSPMEEKELLSPLSEPDDRYPLIVKIDLNLLTRIPGKPYKETEPPKGEKKNVPEKHTREAQKQASEKVSNKGKRKHKNEDDNRASESKKPKTEDKNSAGHKPSSNRESSKQSAAKEKDLLPSPAGPVPSKDPKTEHGSRKRTISQSSSLKSSSNSNKETSGSSKNSSSTSKQKKTEGKTSSSSKEVKEKAPSSSSNCPPSAPTLDSSKPRRTKLVFDDRNYSADHYLQEAKKLKHNADALSDRFEKAVYYLDAVVSFIECGNALEKNAQESKSPFPMYSETVDLIKYTMKLKNYLAPDATAADKRLTVLCLRCESLLYLRLFKLKKENALKYSKTLTEHLKNSYNNSQAPSPGLGSKAVGMPSPVSPKLSPGNSGNYSSGASSASASGSSVTIPQKIHQMAASYVQVTSNFLYATEIWDQAEQLSKEQKEFFAELDKVMGPLIFNASIMTDLVRYTRQGLHWLRQDAKLIS
B2: HCMV protein kinase pUL97, Flag-tagged (pUL97-Flag), P16788 1-707 (natural protein)
chain: MSSALRSRARSASLGTTTQGWDPPPLRRPSRARRRQWMREAAQAAAQAAVQAAQAAAAQVAQAHVDENEVVDLMADEAGGGVTTLTTLSSVSTTTVLGHATFSACVRSDVMRDGEKEDAASDKENLRRPVVPSTSSRGSAASGDGYHGLRCRETSAMWSFEYDRDGDVTSVRRALFTGGSDPSDSVSGVRGGRKRPLRPPLVSLARTPLCRRRVGGVDAVLEENDVELRAESQDSAVASGPGRIPQPLSGSSGEESATAVEADSTSHDDVHCTCSNDQIITTSIRGLTCDPRMFLRLTHPELCELSISYLLVYVPKEDDFCHKICYAVDMSDESYRLGQGSFGEVWPLDRYRVVKVARKHSETVLTVWMSGLIRTRAAGEQQQPPSLVGTGVHRGLLTATGCCLLHNVTVHRRFHTDMFHHDQWKLACIDSYRRAFCTLADAIKFLNHQCRVCHFDITPMNVLIDVNPHNPSEIVRAALCDYSLSEPYPDYNERCVAVFQETGTARRIPNCSHRLRECYHPAFRPMPLQKLLICDPHARFPVAGLRRYCMSELSALGNVLGFCLMRLLDRRGLDEVRMGTEALLFKHAGAACRALENGKLTHCSDACLLILAAQMSYGACLLGEHGAALVSHTLRFVEAKMSSCRVRAFRRFYHECSQTMLHEYVRKNVERLLATSDGLYLYNAFRRTTSIICEEDLDGDCRQLFPE
B3: CDK inhibitor 1C (protein, UniProt P49918 1-316)
chain: MSDASLRSTSTMERLVARGTFPVLVRTSACRSLFGPVDHEELSRELQARLAELNAEDQNRWDYDFQQDMPLRGPGRLQWTEVDSDSVPAFYRETVQVGRCRLLLAPRPVAVAVAVSPPLEPAAESLDGLEEAPEQLPSVPVPAPASTPPPVPVLAPAPAPAPAPVAAPVAAPVAVAVLAPAPAPAPAPAPAPAPVAAPAPAPAPAPAPAPAPAPAPDAAPQESAEQGANQGQRGQEPLADQLHSGISGRPAAGTAAASANGAAIKKLSGPLISDFFAKRKRSAPEKSSGDVPAPCPSPSAAPGVGSVEQTPRKRLR

Columns and labels:
[1] = target: HCMV protein kinase pUL97, Flag-tagged (pUL97-Flag) (human cytomegalovirus) (UniProt P16788); test: affinity purification with mass spectrometry
[2] = target: Cyclin B1 (human (endogenous in 293T and HFF)) (UniProt P14635); test: affinity purification with mass spectrom
[3] = target: T1, Cyclin H (human (endogenous in 293T and HFF)); test: affinity purification with mass spectrom
[4] = target: Cyclin T1 (human (endogenous in 293T and HFF)) (UniProt O60563); test: affinity purification with mass spectrom
[5] = target: Cyclin B1 (human (endogenous in 293T and HFF)), P14635; test: affinity purification with mass spectrometry; conditions: remark: other sources report otherwise

| Binder | binding [1] | binding [2] | binding [3] | binding [4] | binding [5] |
| --- | --- | --- | --- | --- | --- |
| B1 | binds | binds | binds | binds | – |
| B2 | – | – | – | – | binds |
| B3 | – | binds | – | – | – |

These are yes or no findings as the source states them, for the method shown. Binding seen in cells or lysates may run through a third protein. A yes stands for co-enrichment or nearness to the bait. Other partners may have been found. For part of these data: Where a sequence is shown, tags or fusion partners need not be part of it.
